The list is a part of this screen's results and no random one: it is rich in T/C values a quarter to a half above the control, in often repeated tests (any T/C) and in doses without a T/C. Other doses and runs of a compound stand elsewhere. T/C: endpoint of the treated group in % of that of the vehicle group. Some doses have a count of surviving animals in place of a T/C: the source files T/C as zero there, which appears to mark a toxic dose or a test without result, not a measured value. Some survivor counts are full or nearly so, which does not show that the dose was tolerated: survival well below the control is almost never listed, so the zero probably covers shortened survival too. Survivors were counted at the toxicity check, usually on the fifth day, unless a day is given; later deaths do not show. Schedule codes are those of the source, read here as Q, the interval in days (D) or hours (H), X, the number of doses. Some doses were run more than once; the results are listed from low to high. For survival time, the PubChem record calls one and a half times the control and up active, and a quarter to a half above the control has no call in these data; cut-offs in other NCI protocols can differ.
Tested on: P388 leukemia ip, CD2F1 mice, survival T/C
Test: NCI In Vivo Anticancer Drug Screen. Data for tumor model P388 Leukemia (intraperitoneal) in CD2F1 (CDF1) mice
Conditions: T/C endpoint: median survival time, higher T/C = longer survival
[1] = dose: 400.0 mg/kg/injection, schedule: Q01DX009 (ip), vehicle: Klucel (hydroxypropylcellulose) (HPC)
[2] = dose: 100.0 mg/kg/injection, schedule: Q01DX009 (ip), vehicle: saline
[3] = dose: 200.0 mg/kg/injection, schedule: Q01DX009 (ip), vehicle: saline
[4] = dose: 200.0 mg/kg/injection, schedule: Q01DX005 (ip), vehicle: saline with Tween-80
[5] = dose: 100.0 mg/kg/injection, schedule: Q01DX009 (ip), vehicle: saline with Tween-80
[6] = dose: 200.0 mg/kg/injection, schedule: Q01DX009 (ip), vehicle: saline with Tween-80
[7] = dose: 400.0 mg/kg/injection, schedule: Q01DX009 (ip), vehicle: saline with Tween-80
[8] = dose: 50.0 mg/kg/injection, schedule: Q01DX009 (ip), vehicle: saline
[9] = dose: 200.0 mg/kg/injection, schedule: Q01DX005 (ip), vehicle: saline
[10] = dose: 200.0 mg/kg/injection, schedule: Q01DX009 (ip), vehicle: Klucel (hydroxypropylcellulose) (HPC)

With `COC1=CC(=O)C(=O)C=C1C(C)(C)C` the survivor count (dose: 90.0 mg/kg/injection, schedule: Q01DX005 (ip), vehicle: saline with Tween-80) was 4 of 6 and the survivor count (dose: 180.0 mg/kg/injection, schedule: Q01DX005 (ip), vehicle: saline with Tween-80) was 0 of 6.

In the case of `CCC1CN2CCc3cc(OC)c(OC)cc3C2CC1(O)C#N` (stereo unspecified), the survivor count [1] is reported as 0 of 6.

For `Cc1cnc(N)c(S(=O)(=O)O)c1`, the survivor count [2] was 6 of 6 and the survivor count [3] was 5 of 6.

`[N-]=[N+]=Nc1ccccc1C(=O)NCCCNC(=O)c1ccccc1N=[N+]=[N-]` was tested, and the survivor count (dose: 50.0 mg/kg/injection, schedule: Q01DX005 (ip), vehicle: saline with Tween-80) was 6 of 6, the survivor count (dose: 100.0 mg/kg/injection, schedule: Q01DX005 (ip), vehicle: saline with Tween-80) was 6 of 6 and the survivor count [4] was 6 of 6.

In the case of `CCC(C)c1cnc(CC(C)C)c(=O)n1O` (stereo unspecified), the survivor count [5] is reported as 3 of 6, the survivor count [6] is reported as 0 of 6 and the survivor count [7] is reported as 0 of 6.

With `CC(C)[S][Pb]([c]1ccccc1)([c]1ccccc1)[c]1ccccc1` the survivor count (dose: 10.0 mg/kg/injection, schedule: Q01DX009 (ip), vehicle: gum acacia) was 5 of 6, the survivor count (dose: 20.0 mg/kg/injection, schedule: Q01DX009 (ip), vehicle: gum acacia) was 0 of 6 and the survivor count (dose: 25.0 mg/kg/injection, schedule: Q04DX003 (ip), vehicle: gum acacia) was 6 of 6.

For `O=S1(=O)C2C=CCCC1C=C2` (stereo unspecified), the survivor count [8] was 6 of 6 and the survivor count [2] was 4 of 6.

In the case of `COC(/C=N/OC(=O)c1ccc([N+](=O)[O-])cc1)c1ccccc1` (stereo unspecified), the survivor count (dose: 100.0 mg/kg/injection, schedule: Q04DX003 (ip), vehicle: saline with Tween-80) is reported as 2 of 6 and 4 of 6, the survivor count (dose: 200.0 mg/kg/injection, schedule: Q04DX003 (ip), vehicle: saline with Tween-80) is reported as 0 of 6 and 4 of 6 and the survivor count (dose: 400.0 mg/kg/injection, schedule: Q04DX003 (ip), vehicle: saline with Tween-80) is reported as 0 of 6 and 3 of 6.

With `CC1(C)CC2CCCCN2CO1` (stereo unspecified) the survivor count [9] was 0 of 6.

With `C#CCOC(=O)C(Cl)(Cl)Cl` the survivor count (dose: 400.0 mg/kg/injection, schedule: Q04DX003 (ip), vehicle: saline) was 0 of 6.

With `C[n+]1c(-c2ccccc2)c2cc(N)ccc2c2ccc(N)cc21` the T/C (dose: 6.25 mg/kg/injection, schedule: Q04DX003 (ip), vehicle: saline with Tween-80) was 128 % of control, the T/C (dose: 12.5 mg/kg/injection, schedule: Q04DX003 (ip), vehicle: saline with Tween-80) was 130 and 137 % of control and the T/C (dose: 25.0 mg/kg/injection, schedule: Q04DX003 (ip), vehicle: saline with Tween-80) was 130 % of control. For the same compound, the survivor count (dose: 50.0 mg/kg/injection, schedule: Q04DX003 (ip), vehicle: saline with Tween-80) was 5 of 6.

`COc1ccc(C(=O)CC[N+](C)(C)C)cc1` was tested, and the survivor count [8] was 1 of 6 and 6 of 6, the survivor count [2] was 0 of 6 and the survivor count [3] was 0 of 6.

For `CN(C)N=Nc1ccc(C(=O)NC(Cc2ccccc2)C(=O)O)cc1` (stereo unspecified), the survivor count (dose: 100.0 mg/kg/injection, schedule: Q01DX005 (ip), vehicle: Klucel (hydroxypropylcellulose) (HPC)) was 6 of 6.

`CC1(C)CN(Cc2ccccc2)C1(C)C#N` (stereo unspecified) was tested, and the survivor count (dose: 240.0 mg/kg/injection, schedule: Q01DX005 (ip), vehicle: saline with Tween-80) was 1 of 6.

In the case of `CCC(=O)N(C)[C@@H](C)C(=O)O[C@H]1CC(=O)N(C)c2cc(cc(OC)c2Cl)C/C(C)=C/C=C[C@@H](OC)[C@@]2(O)C[C@H](OC(=O)N2)[C@@H](C)[C@@H]2O[C@@]12C`, the T/C (dose: 0.4 micrograms/kg/injection, schedule: Q01DX009 (ip), vehicle: saline) is reported as 130 % of control, the T/C (dose: 0.8 micrograms/kg/injection, schedule: Q01DX009 (ip), vehicle: saline) is reported as 136 % of control and the T/C (dose: 1.6 micrograms/kg/injection, schedule: Q01DX009 (ip), vehicle: saline) is reported as 142 % of control. For the same compound, the T/C (dose: 12.5 micrograms/kg/injection, schedule: Q01DX009 (ip), vehicle: saline + alcohol) was 126 % of control, the survivor count (dose: 25.0 micrograms/kg/injection, schedule: Q01DX009 (ip), vehicle: saline + alcohol) was 10 of 10 and the survivor count (dose: 50.0 micrograms/kg/injection, schedule: Q01DX009 (ip), vehicle: saline + alcohol) was 7 of 10. For the same compound, the survivor count (dose: 100.0 micrograms/kg/injection, schedule: Q01DX009 (ip), vehicle: saline + alcohol) was 7 of 10 and the survivor count (dose: 200.0 micrograms/kg/injection, schedule: Q01DX009 (ip), vehicle: saline + alcohol) was 5 of 10.

With `O=c1c2ccccc2[nH]c2c([N+](=O)[O-])ccc(Oc3ccc(CCc4ccc(Oc5ccc([N+](=O)[O-])c6[nH]c7ccccc7c(=O)c56)cc4)cc3)c12` the survivor count (dose: 50.0 mg/kg/injection, schedule: Q01DX009 (ip), vehicle: saline with Tween-80) was 6 of 6 and the survivor count [5] was 6 of 6.

For `CC1CC=CC(=O)CC1` (stereo unspecified), the survivor count [10] was 1 of 6.

With `COc1ccc([I+]c2ccc(OC)cc2)cc1` the survivor count (dose: 1.5 mg/kg/injection, schedule: Q01DX009 (ip), vehicle: saline with Tween-80) was 6 of 6, the survivor count (dose: 12.5 mg/kg/injection, schedule: Q01DX009 (ip), vehicle: saline) was 6 of 6 and the survivor count (dose: 25.0 mg/kg/injection, schedule: Q01DX009 (ip), vehicle: saline) was 5 of 6. The survivor count [8] was 0 of 6.

With `COC(=O)/C=N/NS(=O)(=O)c1cccc(N)c1` the survivor count (dose: 400.0 mg/kg/injection, schedule: Q01DX009 (ip), vehicle: water) was 2 of 3.

`c1cc2c3c(cccc3c1)-c1nc3ccccc3nc1-2` was tested, and the survivor count [10] was 4 of 6.

`COc1cc(C)c2c(=O)c3c(oc2c1)C(=O)c1c(O)c(OC)cc(O)c1C3=O` was tested, and the T/C [5] was 125 % of control and the survivor count [7] was 2 of 6.

With `CC1(C)NNC(=S)NC1=O` the survivor count [1] was 6 of 6.

For `Cc1ccc(C(c2ccccc2)c2ccc(C)cc2O)c(O)c1`, the survivor count [6] was 5 of 6.

For `CCOC(=O)C(C(=O)OCC)=S1c2ccccc2Sc2ccccc21`, the survivor count (dose: 240.0 mg/kg/injection, schedule: Q01DX005 (ip), vehicle: Klucel (hydroxypropylcellulose) (HPC)) was 5 of 6.

With `OCc1ccc(O)c(O)c1` the T/C (dose: 50.0 mg/kg/injection, schedule: Q01DX005 (ip), vehicle: saline) was 130 % of control, the T/C [9] was 129 % of control and the T/C (dose: 400.0 mg/kg/injection, schedule: Q01DX005 (ip), vehicle: saline) was 130 % of control.

`COc1cc(Br)c2nsnc2c1` was tested, and the survivor count [4] was 0 of 6.
